Measured values from US20080051646A1, “Probe for cellular oxygen” (priority 2006, published 2008).
Some entries share one result that the patent states for a list of compounds.

Test system: Jurkat T-cells
Assay: Phosphorescence lifetime of PtCP-BSA probe in Jurkat cells on a fluorescent lifetime spectrometer
Format: cell-based
Conditions: Jurkat cells loaded with PtCP-BSA probe; 1 μM; from basal level of 31 μs

CC(C)[C@@H]1NC(=O)[C@H](C)OC(=O)[C@@H](C(C)C)NC(=O)[C@@H](C(C)C)OC(=O)[C@H](C(C)C)NC(=O)[C@H](C)OC(=O)[C@@H](C(C)C)NC(=O)[C@@H](C(C)C)OC(=O)[C@H](C(C)C)NC(=O)[C@H](C)OC(=O)[C@@H](C(C)C)NC(=O)[C@@H](C(C)C)OC1=O [valinomycin]
probe lifetime after addition of uncoupler: 40-45 μs
